Reference: the supplement of paper PMC12067093, “Discovery and optimisation of a covalent ligand for TRIM25 and its application to targeted protein ubiquitination” (Chemical Science, 2025)
Some of the results follow.

Chains of the proteins cited; added tags and fusions are not shown. Lines headed by an entry give the natural chain unless they say otherwise; changes in a name come on top.
UniProt Q86SQ7: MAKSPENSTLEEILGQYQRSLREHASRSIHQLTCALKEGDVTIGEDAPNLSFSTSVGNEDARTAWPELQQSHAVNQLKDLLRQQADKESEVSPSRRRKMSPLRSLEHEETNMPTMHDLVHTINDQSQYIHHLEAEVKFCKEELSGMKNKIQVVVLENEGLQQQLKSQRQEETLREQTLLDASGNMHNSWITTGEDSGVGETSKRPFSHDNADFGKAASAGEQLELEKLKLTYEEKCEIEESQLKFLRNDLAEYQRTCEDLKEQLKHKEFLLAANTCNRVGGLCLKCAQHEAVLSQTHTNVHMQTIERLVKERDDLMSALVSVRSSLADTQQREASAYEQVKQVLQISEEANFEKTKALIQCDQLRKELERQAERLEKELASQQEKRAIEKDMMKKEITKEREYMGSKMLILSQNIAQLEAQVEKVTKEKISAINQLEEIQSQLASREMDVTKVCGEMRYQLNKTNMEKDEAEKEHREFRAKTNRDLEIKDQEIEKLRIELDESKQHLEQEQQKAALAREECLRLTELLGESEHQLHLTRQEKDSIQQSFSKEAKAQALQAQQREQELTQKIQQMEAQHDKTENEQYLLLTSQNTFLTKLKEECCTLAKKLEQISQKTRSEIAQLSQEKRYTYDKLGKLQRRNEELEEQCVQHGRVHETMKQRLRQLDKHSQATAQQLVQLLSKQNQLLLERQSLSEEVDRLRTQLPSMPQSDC
UniProt O94855: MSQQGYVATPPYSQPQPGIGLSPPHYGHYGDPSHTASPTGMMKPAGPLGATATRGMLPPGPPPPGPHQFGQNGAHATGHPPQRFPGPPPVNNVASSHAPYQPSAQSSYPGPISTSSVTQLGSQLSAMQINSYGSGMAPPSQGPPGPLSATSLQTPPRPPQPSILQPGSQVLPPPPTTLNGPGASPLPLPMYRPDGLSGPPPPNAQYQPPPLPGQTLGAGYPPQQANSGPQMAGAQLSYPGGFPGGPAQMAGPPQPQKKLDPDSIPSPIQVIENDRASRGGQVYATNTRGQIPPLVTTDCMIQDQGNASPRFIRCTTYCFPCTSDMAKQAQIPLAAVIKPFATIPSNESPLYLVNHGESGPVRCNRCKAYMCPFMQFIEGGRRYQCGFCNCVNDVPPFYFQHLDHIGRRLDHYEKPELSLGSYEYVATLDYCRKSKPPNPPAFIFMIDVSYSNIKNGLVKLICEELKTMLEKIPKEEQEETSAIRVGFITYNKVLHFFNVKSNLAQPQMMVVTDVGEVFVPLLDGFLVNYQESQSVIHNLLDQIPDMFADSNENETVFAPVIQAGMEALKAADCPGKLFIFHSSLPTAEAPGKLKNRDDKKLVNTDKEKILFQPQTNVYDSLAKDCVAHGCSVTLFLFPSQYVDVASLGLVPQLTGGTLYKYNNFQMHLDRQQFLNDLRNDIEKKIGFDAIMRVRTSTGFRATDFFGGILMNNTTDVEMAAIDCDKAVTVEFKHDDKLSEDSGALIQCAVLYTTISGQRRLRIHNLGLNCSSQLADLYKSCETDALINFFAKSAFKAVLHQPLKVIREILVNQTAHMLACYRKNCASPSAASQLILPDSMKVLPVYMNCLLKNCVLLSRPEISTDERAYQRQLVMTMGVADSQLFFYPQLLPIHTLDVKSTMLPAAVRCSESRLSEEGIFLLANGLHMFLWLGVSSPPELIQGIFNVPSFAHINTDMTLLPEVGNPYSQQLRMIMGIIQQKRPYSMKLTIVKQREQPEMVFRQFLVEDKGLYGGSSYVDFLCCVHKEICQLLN
UniProt Q15437: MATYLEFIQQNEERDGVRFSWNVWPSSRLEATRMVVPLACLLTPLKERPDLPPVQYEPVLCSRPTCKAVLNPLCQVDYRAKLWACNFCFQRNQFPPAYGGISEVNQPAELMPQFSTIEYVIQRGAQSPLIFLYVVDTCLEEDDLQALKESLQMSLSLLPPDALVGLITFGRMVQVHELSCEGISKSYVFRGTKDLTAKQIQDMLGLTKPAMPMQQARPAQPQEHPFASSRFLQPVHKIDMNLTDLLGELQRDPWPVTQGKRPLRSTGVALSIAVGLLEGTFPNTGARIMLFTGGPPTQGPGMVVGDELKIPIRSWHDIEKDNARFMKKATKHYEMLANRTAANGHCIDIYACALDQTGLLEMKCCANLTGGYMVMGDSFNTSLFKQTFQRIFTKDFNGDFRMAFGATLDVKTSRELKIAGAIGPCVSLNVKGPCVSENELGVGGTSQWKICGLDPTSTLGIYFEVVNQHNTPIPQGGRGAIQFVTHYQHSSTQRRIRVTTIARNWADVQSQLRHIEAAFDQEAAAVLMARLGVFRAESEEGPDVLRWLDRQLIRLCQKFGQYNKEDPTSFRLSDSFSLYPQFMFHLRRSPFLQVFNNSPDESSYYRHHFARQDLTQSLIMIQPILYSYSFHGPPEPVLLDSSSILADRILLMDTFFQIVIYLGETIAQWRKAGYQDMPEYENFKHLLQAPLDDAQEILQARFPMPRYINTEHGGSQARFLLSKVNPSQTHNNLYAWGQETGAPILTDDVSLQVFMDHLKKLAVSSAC
UniProt O15027: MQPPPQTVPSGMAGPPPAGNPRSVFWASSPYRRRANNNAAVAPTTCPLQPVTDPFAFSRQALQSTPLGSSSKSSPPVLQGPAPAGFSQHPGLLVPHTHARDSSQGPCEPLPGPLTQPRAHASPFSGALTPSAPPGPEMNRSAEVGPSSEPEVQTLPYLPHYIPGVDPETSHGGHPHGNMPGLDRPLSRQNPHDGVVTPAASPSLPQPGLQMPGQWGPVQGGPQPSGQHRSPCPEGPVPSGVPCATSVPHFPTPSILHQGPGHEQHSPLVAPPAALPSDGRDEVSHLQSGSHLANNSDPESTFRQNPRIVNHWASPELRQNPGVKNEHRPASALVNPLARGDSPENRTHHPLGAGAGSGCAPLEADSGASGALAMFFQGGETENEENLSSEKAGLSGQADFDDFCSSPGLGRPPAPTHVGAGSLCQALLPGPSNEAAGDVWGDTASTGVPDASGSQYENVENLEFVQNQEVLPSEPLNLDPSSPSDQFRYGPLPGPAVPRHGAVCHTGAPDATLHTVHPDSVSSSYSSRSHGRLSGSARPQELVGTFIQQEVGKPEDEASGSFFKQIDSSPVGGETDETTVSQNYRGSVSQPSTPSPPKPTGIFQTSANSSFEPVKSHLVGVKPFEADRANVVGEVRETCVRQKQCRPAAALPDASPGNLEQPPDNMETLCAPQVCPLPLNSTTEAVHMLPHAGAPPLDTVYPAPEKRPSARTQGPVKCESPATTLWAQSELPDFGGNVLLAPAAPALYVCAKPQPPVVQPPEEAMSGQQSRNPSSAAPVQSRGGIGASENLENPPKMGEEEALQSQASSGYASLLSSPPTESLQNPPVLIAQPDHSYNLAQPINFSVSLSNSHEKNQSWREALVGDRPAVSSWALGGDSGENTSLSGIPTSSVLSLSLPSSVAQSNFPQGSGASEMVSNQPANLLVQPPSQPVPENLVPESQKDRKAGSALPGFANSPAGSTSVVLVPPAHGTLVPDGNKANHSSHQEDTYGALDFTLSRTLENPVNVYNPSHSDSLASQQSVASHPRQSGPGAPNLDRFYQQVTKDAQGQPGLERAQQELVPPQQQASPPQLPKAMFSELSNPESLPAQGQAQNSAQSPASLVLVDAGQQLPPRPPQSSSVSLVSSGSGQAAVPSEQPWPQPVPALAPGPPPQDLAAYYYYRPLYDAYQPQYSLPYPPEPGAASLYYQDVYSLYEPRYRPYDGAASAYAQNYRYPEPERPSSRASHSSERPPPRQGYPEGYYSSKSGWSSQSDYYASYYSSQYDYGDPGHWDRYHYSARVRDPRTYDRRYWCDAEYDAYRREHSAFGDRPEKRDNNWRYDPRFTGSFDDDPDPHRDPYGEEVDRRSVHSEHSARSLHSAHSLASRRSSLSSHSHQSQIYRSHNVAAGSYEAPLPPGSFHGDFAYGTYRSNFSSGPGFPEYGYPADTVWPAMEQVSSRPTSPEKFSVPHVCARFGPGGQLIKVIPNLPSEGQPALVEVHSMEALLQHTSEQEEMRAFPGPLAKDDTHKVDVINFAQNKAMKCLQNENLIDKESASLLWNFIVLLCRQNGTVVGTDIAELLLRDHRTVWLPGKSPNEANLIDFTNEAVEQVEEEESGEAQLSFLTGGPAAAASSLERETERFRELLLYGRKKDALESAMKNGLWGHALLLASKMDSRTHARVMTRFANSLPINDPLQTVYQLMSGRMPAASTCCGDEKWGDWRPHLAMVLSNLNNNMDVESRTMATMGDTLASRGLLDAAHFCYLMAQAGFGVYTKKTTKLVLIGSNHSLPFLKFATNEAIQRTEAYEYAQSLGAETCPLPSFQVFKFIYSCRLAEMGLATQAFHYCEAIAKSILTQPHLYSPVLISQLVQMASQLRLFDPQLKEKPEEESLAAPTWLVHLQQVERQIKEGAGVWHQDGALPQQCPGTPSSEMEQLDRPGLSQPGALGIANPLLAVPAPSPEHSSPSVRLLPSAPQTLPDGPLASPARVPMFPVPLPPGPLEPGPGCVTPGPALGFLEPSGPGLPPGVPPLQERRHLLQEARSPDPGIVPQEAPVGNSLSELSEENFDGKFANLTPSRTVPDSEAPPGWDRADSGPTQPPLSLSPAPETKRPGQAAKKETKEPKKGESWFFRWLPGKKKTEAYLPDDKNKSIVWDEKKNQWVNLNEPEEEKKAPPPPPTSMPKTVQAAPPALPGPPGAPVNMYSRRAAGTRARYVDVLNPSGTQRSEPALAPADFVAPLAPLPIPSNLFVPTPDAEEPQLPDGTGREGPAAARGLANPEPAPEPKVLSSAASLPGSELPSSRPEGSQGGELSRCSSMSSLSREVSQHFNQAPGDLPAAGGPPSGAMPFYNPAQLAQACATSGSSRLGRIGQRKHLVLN
UniProt P61619, whole entry, looked up: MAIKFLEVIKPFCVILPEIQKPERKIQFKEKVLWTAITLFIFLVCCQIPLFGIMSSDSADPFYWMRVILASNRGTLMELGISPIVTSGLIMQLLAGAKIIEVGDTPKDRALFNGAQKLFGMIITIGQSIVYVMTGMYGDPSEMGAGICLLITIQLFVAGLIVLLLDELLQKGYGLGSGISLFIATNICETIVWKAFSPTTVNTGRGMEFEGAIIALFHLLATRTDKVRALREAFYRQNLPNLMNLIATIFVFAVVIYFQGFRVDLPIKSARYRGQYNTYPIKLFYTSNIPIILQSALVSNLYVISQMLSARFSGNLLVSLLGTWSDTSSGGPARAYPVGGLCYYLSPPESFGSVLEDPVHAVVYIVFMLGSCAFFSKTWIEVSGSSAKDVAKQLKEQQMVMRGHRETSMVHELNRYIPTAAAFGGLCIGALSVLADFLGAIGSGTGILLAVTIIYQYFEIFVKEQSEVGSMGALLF
UniProt Q9Y3A5: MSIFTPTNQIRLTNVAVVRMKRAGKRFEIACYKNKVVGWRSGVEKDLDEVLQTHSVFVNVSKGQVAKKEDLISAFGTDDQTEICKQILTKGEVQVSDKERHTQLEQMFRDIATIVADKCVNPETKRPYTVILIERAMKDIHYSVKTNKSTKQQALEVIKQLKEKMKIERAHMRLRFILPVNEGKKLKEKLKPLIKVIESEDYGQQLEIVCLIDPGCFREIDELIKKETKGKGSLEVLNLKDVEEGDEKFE
UniProt Q15020: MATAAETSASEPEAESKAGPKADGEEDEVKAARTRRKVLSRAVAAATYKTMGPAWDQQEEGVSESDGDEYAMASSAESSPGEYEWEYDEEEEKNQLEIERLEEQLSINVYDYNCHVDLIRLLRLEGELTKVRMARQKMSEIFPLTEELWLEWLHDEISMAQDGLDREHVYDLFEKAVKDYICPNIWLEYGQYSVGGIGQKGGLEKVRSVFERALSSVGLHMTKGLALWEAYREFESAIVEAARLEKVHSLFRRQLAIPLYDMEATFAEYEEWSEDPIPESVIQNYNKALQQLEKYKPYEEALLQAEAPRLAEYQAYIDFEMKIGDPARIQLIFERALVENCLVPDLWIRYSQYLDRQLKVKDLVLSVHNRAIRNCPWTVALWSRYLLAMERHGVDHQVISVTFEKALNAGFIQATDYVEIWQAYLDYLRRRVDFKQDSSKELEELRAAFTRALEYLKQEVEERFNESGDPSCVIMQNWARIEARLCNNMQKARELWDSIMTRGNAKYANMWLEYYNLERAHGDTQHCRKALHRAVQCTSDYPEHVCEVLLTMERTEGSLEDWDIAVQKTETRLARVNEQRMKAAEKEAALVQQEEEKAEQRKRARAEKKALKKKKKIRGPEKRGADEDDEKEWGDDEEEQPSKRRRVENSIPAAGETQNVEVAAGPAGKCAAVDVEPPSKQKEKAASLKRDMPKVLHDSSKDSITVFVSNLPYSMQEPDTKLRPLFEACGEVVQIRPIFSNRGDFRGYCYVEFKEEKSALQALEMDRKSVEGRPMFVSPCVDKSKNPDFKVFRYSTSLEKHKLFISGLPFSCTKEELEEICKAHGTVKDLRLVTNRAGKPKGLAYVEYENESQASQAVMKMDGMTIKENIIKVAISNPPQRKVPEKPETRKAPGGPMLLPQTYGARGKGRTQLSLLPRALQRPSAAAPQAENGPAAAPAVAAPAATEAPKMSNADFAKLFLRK

Compound: Cc1cc(ccc1-c1ccccc1)C(=O)N1CCCN(CC1)C(=O)CCl [compound 10]
Assay: probe-labelled cysteine peptide fold change vs DMSO (competition) (log2 fold change); higher = less target engagement (more negative = stronger competition)
Settings: THP-1, incubation time: 4 h
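Note: competitive profiling in live THP-1 cells: cysteine peptides tagged with an iodoacetamide desthiobiotin (IA-DTB) probe, intensity after compound treatment relative to DMSO-treated cells.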

| Target | probe-labelled cysteine peptide fold change (10 µM) | probe-labelled cysteine peptide fold change (50 µM) |
| --- | --- | --- |
| SCAF11_Q99590_553_TDVCTVHLPNDFPTCLTSESK (UniProt Q99590) | -0.12 | -0.092 |
| SEMA4D_Q92854_512_HGTCEDCVLAR (UniProt Q92854) | -0.113 | -0.827 |
| SEC22A_Q96IW7_111_TNTAVRPYCFIEFDNFIQR (UniProt Q96IW7) | -0.0625 | -0.0958 |
| SDCCAG8_Q86SQ7_236_CEIEESQLK (UniProt Q86SQ7) | 0.069 | -0.322 |
| SEC24D_O94855_371_AYMCPFMQFIEGGR (UniProt O94855) | 0.0414 | -0.448 |
| SCRIB_Q14160_496_RSEACPCQPDSGSPLPAEEEK (UniProt Q14160) | -0.341 | -0.992 |
| SEPHS1_P49903_317_ACGNMFGLMHGTCPETSGGLLICLPR (UniProt P49903) | -0.00273 | -0.259 |
| SAMM50_Q9Y512_457_ICDGVQFGAGIR (UniProt Q9Y512) | 0.0539 | -0.404 |
| SEL1L3_Q68CR1_475_QEACHLHNSYLDLQR (UniProt Q68CR1) | 0.18 | 0.0464 |
| SEC63_Q9UGP8_671_EQTLISMPYHVCTLK (UniProt Q9UGP8) | 0.235 | 0.336 |
| SDSL_Q96GA7_38_CENVQPSGSFK (UniProt Q96GA7) | 0.0156 | -0.0604 |
| SENP8_Q96LD8_64_CTSNPAEIAMFLEPLDLPNKR (UniProt Q96LD8) | -0.0924 | -0.139 |
| SEC23B_Q15437_434_GPCVSENELGVGGTSQWK (UniProt Q15437) | 0.152 | -0.0746 |
| SEC16A_O15027_1293_YWCDAEYDAYRR (UniProt O15027) | -0.239 | -0.523 |
| SEC16A_O15027_1293_YWCDAEYDAYR (UniProt O15027) | -0.357 | -0.54 |
| SEPT2_Q15019_111_LTVVDTPGYGDAINCR (UniProt Q15019) | 0.131 | 0.0356 |
| SEC61A1_P61619_13_FLEVIKPFCVILPEIQKPERK (UniProt P61619) | 0.0585 | -0.17 |
| SART1_O43290_560_GAIVFNATSEFCR (UniProt O43290) | -0.126 | -0.0878 |

3 entries from above, set out differently:
Target | probe-labelled cysteine peptide fold change (10 µM) | probe-labelled cysteine peptide fold change (50 µM)
SDCCAG8_Q86SQ7_236_CEIEESQLK (UniProt Q86SQ7) | 0.069 | -0.322
SEC24D_O94855_371_AYMCPFMQFIEGGR (UniProt O94855) | 0.0414 | -0.448
SCRIB_Q14160_496_RSEACPCQPDSGSPLPAEEEK (UniProt Q14160) | -0.341 | -0.992

(continued)

| Target | probe-labelled cysteine peptide fold change (10 µM) | probe-labelled cysteine peptide fold change (50 µM) |
| --- | --- | --- |
| SEC24C_P53992_452_FQCCFCSCINDVPPQYFQHLDHTGKR (UniProt P53992) | -0.0315 | -0.0322 |
| SEPT11_Q9NVA2_46_STSQGFCFNILCVGETGIGK (UniProt Q9NVA2) | 0.212 | -0.163 |
| SCRIB_Q14160_334_LTNLNVDRNHLEALPPEIGGCVALSVLSLR (UniProt Q14160) | -0.0166 | -0.354 |
| SCYL3_Q8IZE3_71_FLSCTVEADGIHLVTER (UniProt Q8IZE3) | 0.00139 | -0.0177 |
| SDHA_P31040_266_TYFSCTSAHTSTGDGTAMITR (UniProt P31040) | 0.135 | -0.103 |
| SCYL1_Q96KG9_143_ALSFLVNDCSLIHNNVCMAAVFVDR (UniProt Q96KG9) | 0.00161 | 0.208 |
| SCMH1_Q96GD3_116_LVDSAEIQPIGNCEK (UniProt Q96GD3) | -0.154 | 0.0953 |
| SBDS_Q9Y3A5_216_VIESEDYGQQLEIVCLIDPGCFR (UniProt Q9Y3A5) | 0.237 | 0.238 |
| SEC23B_Q15437_40_MVVPLACLLTPLK (UniProt Q15437) | 0.0483 | -0.105 |
| SEC31A_O94979_216_MHCSGLAWHPDVATQMVLASEDDRLPVIQMWDLR (UniProt O94979) | 0.137 | 0.0273 |
| SART3_Q15020_114_LEEQLSINVYDYNCHVDLIR (UniProt Q15020) | 0.195 | 0.159 |
| SEC13_P55735_153_KINNAHTIGCNAVSWAPAVVPGSLIDHPSGQK (UniProt P55735) | 0.25 | 0.151 |
| SEC24C_P53992_1083_SLSGGASYVDFLCHMHK (UniProt P53992) | -0.0911 | -0.558 |
| SCAF8_Q9UPN6_1170_DRDDRDFDFCR (UniProt Q9UPN6) | -0.37 | -0.343 |
| SART3_Q15020_821_EELEEICK (UniProt Q15020) | 0.175 | 0.166 |
| SEC24D_O94855_1021_GLYGGSSYVDFLCCVHK (UniProt O94855) | -0.0787 | -0.572 |
| SEC24C_P53992_448_FQCCFCSCINDVPPQYFQHLDHTGKR (UniProt P53992) | 0.109 | 0.0173 |
